Series [1] relates to MCF-7 breast cancer cells. It counts as cell-based. The note with it: selectivity index. The protocol:
(§1) The cell lines were obtained from American Type Culture Collection (ATCC, Manassas, VA, USA) and were cultured at 37 °C in the presence of 5% CO2 in the atmosphere. […] The cell’s morphology was examined under a Nikon Eclipse Ti inverted phase contrast microscope (Nikon, Tokyo, Japan). The authenticity of tested cell lines was verified by short tandem repeat (STR) genotyping in the Department of Forensic Medicine (Medical University of Lublin, Lublin, Poland).
(§2) Cell viability based on metabolic activity was evaluated with the MTT colorimetric test based on the ability of viable cells to cause the transformation of tetrazolium salts MTT (3-[4,5-dimethylthiazol-2-yl]-2,5)diphenyltetrazolium bromide) into purple formazan, by cellular dehydrogenases. The cells were seeded into 96-well plates at a concentration of 2 × 10^5 cells/mL. […] Doxorubicin was used for comparison as the standard chemotherapeutic agent used in breast cancer treatment. After 48 h of incubation cell cultures were supplemented with 20 µL of 5 mg/mL MTT (Thermofisher, Waltham, MA, USA) stock in PBS (Corning, NY, USA), and the incubation was continued for 4 h at 37 °C. Next, the medium with MTT was removed, and obtained crystals were dissolved in 200 µL of DMSO (dimethyl sulfoxide, Avantor, Gliwice, Poland). The solution absorbency was measured at 570 nm, using a PowerWave™ xs microplate spectrophotometer (BioTek Instruments, Winooski, VT, USA). The experiment was performed three times with three replicates for each concentration of tested compounds.

Series [2] relates to MDA-MB-231 breast cancer cells. Format: cell-based. The conditions noted are these: selectivity index. The protocol:
as §1, §2

As for `N=C(N)N(CCCCN1CCN(CCCCCCCOc2ccccc2)CC1)Cc1ccccc1` [ADS1017], in series [1], the “SI BJ(IC50)/MCF-7(IC50)” value turned out to be 1.58. For the same molecule, in series [2], the “SI BJ(IC50)/MDA-MB-231(IC50)” value is recorded as 1.96.

Consider `Cl.Cl.N=C(NCCCCc1ccc(Cl)cc1)NCCCCN1CCCCC1` [ADS10310], for which the “SI BJ(IC50)/MCF-7(IC50)” value in series [1] turned out to be 2.79. In addition, the “SI BJ(IC50)/MDA-MB-231(IC50)” value in series [2] is recorded as 2.01.

Take `COc1cccc2c1C(=O)c1c(O)c3c(c(O)c1C2=O)C[C@@](O)(C(=O)CO)C[C@@H]3O[C@H]1C[C@H](N)[C@H](O)[C@H](C)O1` [Doxorubicin, reference compound]: the “SI BJ(IC50)/MCF-7(IC50)” value in series [1] was determined as 2.20. Moreover, in series [2], the “SI BJ(IC50)/MDA-MB-231(IC50)” value is reported as 2.63.

The record behind these values is article PMC10223552 (Pharmaceuticals, 2023).
